Measurements published in patent US20240425865A1, “METHODS FOR TREATING CELLULAR INFLAMMATION INDUCED BY AFB1” (priority 2023, published 2024).
No constants are given. Whether binding was seen depends on the method and setting. Binding seen in cells or lysates may run through a third protein. Some binding calls cover weakened binding; strength is not graded here.

Sequences of proteins named here, by UniProt entry; tags and fusion partners are left off.
UniProt Q04207: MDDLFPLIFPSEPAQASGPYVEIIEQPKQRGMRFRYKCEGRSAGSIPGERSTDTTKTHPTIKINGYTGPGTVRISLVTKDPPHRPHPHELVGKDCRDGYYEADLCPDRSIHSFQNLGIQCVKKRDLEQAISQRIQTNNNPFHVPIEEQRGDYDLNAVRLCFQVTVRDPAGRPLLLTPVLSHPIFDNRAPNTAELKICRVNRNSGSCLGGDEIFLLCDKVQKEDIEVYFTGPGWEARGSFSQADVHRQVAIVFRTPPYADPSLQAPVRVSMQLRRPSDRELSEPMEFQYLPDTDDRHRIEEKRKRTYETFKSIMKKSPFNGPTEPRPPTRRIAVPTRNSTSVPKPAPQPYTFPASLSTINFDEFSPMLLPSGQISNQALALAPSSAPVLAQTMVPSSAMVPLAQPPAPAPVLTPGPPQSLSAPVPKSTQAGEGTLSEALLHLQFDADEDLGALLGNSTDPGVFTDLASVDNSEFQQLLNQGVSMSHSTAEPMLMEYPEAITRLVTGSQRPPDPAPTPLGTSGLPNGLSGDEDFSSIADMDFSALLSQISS

Legend:
[1] = target: E3 ubiquitin ligase TRIM7 (tripartite motif containing 7) (UniProt Q923T7); assay: Co-IP from MPC-5 whole cell lysates with RelA antibody, Western blot; with or without AFB1 and MG-132
[2] = target: E3 ubiquitin ligase TRIM7 (tripartite motif containing 7) (UniProt Q923T7); assay: IP-MS: RelA antibody immunoprecipitation from MPC-5 cells, LC-MS of co-precipitated proteins
[3] = target: E3 ubiquitin ligase TRIM7 (tripartite motif containing 7) (UniProt Q923T7); assay: summary of the IP-MS and Co-IP/Western blot in MPC-5 cells

Measured: binding

transcription factor RelA (from UniProt Q04207 1-549)
binds: [1] | [2] | [3]
